The text below walks through data of article PMC6648352.

The chains behind the UniProt entries cited, without tags or fusion partners. Where a name states a change or a piece, a line headed by the entry shows the natural chain unless it says otherwise.
UniProt Q388B3: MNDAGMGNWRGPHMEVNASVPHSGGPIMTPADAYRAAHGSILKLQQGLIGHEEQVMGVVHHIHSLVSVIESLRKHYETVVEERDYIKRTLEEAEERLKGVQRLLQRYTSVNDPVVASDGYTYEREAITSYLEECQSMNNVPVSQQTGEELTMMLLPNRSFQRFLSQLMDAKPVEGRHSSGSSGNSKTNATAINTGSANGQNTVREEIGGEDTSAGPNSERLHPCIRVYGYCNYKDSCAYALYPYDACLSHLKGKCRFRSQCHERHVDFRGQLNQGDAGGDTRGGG
UniProt Q388B1: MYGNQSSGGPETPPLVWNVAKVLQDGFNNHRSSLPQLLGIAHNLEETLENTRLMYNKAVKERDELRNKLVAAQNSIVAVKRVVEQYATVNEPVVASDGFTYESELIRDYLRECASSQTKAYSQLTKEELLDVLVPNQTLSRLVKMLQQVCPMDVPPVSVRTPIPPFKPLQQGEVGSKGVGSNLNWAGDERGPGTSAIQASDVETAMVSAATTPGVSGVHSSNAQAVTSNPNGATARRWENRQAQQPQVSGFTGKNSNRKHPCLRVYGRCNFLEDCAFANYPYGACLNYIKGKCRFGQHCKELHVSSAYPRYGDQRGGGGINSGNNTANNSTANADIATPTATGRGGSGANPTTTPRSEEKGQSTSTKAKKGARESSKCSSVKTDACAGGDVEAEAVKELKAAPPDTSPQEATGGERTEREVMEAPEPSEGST

No constants are given. Whether binding was seen depends on the method and setting. Binding seen in cells or lysates may run through a third protein. Binding can be weak; no strength is given.

This assay deals with ZC3H39^GFP (Trypanosoma brucei) (UniProt Q388B3). Briefly: co-IP; lysate of dual-tagged bloodstream form T. brucei (2 x 10^8 cells; 20 mM Tris-Cl pH 8.0, 400 mM NaCl, 1 mM EDTA, 0.5% NP-40, 10% glycerol, 1 mM DTT); IP with anti-GFP magnetic beads, at least 1 h at 4°C; blots with anti-GFP and anti-myc; control strain expressing only ZC3H40^myc.

With ZC3H40^myc (from UniProt Q388B1), the binding entry is “binds”.
